Literature values as cited in patent publication US20240358662A1, “COMPOSITIONS, METHODS AND SYSTEMS FOR AEROSOL DRUG DELIVERY” (ASTRAZENECA PHARMACEUTICALS LP, priority 2021, published 2024).
At least one structure is not confirmed: it was looked up by name or label, or the drawing left a doubt.

CC(F)F [HFC-152a, 1,1-Difluoroethane]
Dipole Moment (Debye): 2.30 Debye
